Results on 32 compounds are retold here after the supplement of paper PMC10735217.

In this assay the test system is HEK293A TEAD-LUC reporter. In words: TEAD-luciferase reporter activity (YAP activation), robust Z score vs plate; higher = stronger YAP/TEAD activation. To be noted: 24 h. In general terms: Reporter assays use an easily measured gene product as a stand-in for the process of interest.

The list shows a part of the results. Single values are uncertain here, since repeats match poorly.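 The human kidney-derived cells carry a stably integrated construct of eight TEAD-binding elements driving luciferase, read by luminescence in a drug-repurposing library screen. A compound counts as a hit when its signal is more than five robust Z scores above the plate mean.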

Take `COC1=CCC2[C@H]3Cc4ccc(OC)c5c4[C@@]2(CCN3C)[C@H]1O5` (some centres undefined) [6-O-Methylcodeine, derivative of]: the TEAD-luciferase reporter activity (compound concentration: 200 nM) was inactive: -0.316, the TEAD-luciferase reporter activity (compound concentration: 2 uM) was inactive: -0.68 and the TEAD-luciferase reporter activity (compound concentration: 10 uM) is inactive: -0.401.
The matching figures for `CN(C)C(=O)Oc1cccc([N+](C)(C)C)c1` [neostigmine methylsulfate, Flamel Technologies]: inactive: -0.496, inactive: -1.16 and inactive: -1.22.
Take `O=[As](O)(O)c1ccc(NCCNc2ccc([As](=O)(O)O)cc2)cc1`: the TEAD-luciferase reporter activity reads like this: (compound concentration: 200 nM) inactive: -1.02; (compound concentration: 2 uM) inactive: 0.804; (compound concentration: 10 uM) inactive: -1.64.
In the same order, the values of `CNC(C)CC1CCCC1` (centres undefined) are inactive: 0.262, inactive: 1.7 and active: 5.34.
In the case of `CC(N)Cc1c[nH]c2ccc(OCc3cccs3)cc12` (centres undefined), the TEAD-luciferase reporter activity is, setting by setting: (compound concentration: 200 nM) inactive: -0.425; (compound concentration: 2 uM) inactive: 2.21; (compound concentration: 10 uM) inactive: -0.0808.
The matching figures for `CC(C)n1c(N2CCNCC2)nc2cc(N)ccc21`: inactive: 1.15, inactive: -1.14 and inactive: -0.892.
In the same order, the values of `CC(Cc1ccccc1)NC(C#N)c1ccccc1` (centres undefined) are inactive: -0.572, inactive: -0.795 and inactive: -0.955.
Consider `NC(=O)C1CC(=O)NCCCC(NC(=O)C(N)Cc2ccc(O)cc2)C(=O)NC(Cc2ccccc2)C(=O)N1` (centres undefined) [Pharmaprojects No. 1890], for which the TEAD-luciferase reporter activity is inactive: 0.294 (compound concentration: 200 nM), inactive: -0.325 (compound concentration: 2 uM) and inactive: -0.115 (compound concentration: 10 uM).
The matching figures for `CNCC(O)c1ccc(O)c(OC)c1` (centres undefined): inactive: -0.258, inactive: -0.858 and inactive: -0.991.
In the same order, the values of `Nc1ccccc1C(=O)OCCC1CCCCN1` (centres undefined) are inactive: -0.106, inactive: 1.17 and inactive: -1.05.
In the same order, the values of `CCCCN1CCC(OC(=O)CC)(c2ccccc2)C1C` (centres undefined) are inactive: 0.573, inactive: -0.256 and inactive: 1.17.
In the case of `CCC1(C2=NCCN2)Cc2ccccc2O1` (centres undefined), the TEAD-luciferase reporter activity (compound concentration: 200 nM) is inactive: 1.07 and the TEAD-luciferase reporter activity (compound concentration: 10 uM) is inactive: 0.0462.
On to `CCC1(C2=NCCN2)Cc2ccccc2O1` (centres undefined) [Efaroxan], for which, for the setting “compound concentration: 2 uM”, the TEAD-luciferase reporter activity is inactive: -0.63.
For `CCNCC(O)c1cccc(OC(=O)C(C)(C)C)c1` (centres undefined) [Etilefrine pivalate], the TEAD-luciferase reporter activity is inactive: 0.0102 (compound concentration: 200 nM), inactive: -0.655 (compound concentration: 2 uM) and inactive: -1.42 (compound concentration: 10 uM).
Consider `Nc1ccc([As](=O)(O)O)cc1`, for which the TEAD-luciferase reporter activity reads like this: (compound concentration: 200 nM) inactive: 2.02; (compound concentration: 2 uM) inactive: 1.58; (compound concentration: 10 uM) inactive: 0.178.
In the same order, the values of `CC1CCC(CN)(CC(=O)O)C1` (centres undefined) are inactive: -1.98, inactive: -1.85 and inactive: -0.196.
As for `OC1(c2ccc(Cl)cc2)c2ccccc2C2=NCCN21` (centres undefined) [mazindol], the TEAD-luciferase reporter activity reads like this: (compound concentration: 200 nM) inactive: 2.03; (compound concentration: 2 uM) inactive: 2.82; (compound concentration: 10 uM) inactive: 4.13.
In the same order, the values of `CN1[C@@H]2CC[C@H]1C[C@@H](NC(=O)c1cnc3ccccc3c1O)C2` are inactive: -0.765, inactive: 0.916 and inactive: 0.0922.
The matching figures for `CCCC[C@@H](NC(=O)[C@@H](Cc1ccccc1)NC(=O)[C@H](N)Cc1ccccc1)C(=O)N[C@H](CCCNC(=N)N)C(N)=O`: inactive: -0.607, inactive: -1.44 and inactive: 0.405.
Turning to `CC(C)NC(=O)N1CCCC1C(=O)N1CCC(N2CCCC2=O)CC1` (centres undefined), under “compound concentration: 200 nM”, the TEAD-luciferase reporter activity was inactive: 0.352.
Consider `O=C(C1CCCN1C(=O)Cc1cccc(Cl)c1)N1CCC(N2Cc3ccccc3C2=O)CC1` (centres undefined), for which the TEAD-luciferase reporter activity is, setting by setting: (compound concentration: 200 nM) inactive: -3.01; (compound concentration: 10 uM) inactive: -0.58.
For the compound `C=C(/C=N/NC(=N)N)NNC(=N)N` [Mitoguazone], the TEAD-luciferase reporter activity is inactive: 0.984 (compound concentration: 200 nM), inactive: -1.21 (compound concentration: 2 uM) and inactive: -1.91 (compound concentration: 10 uM).
In the same order, the values of `N#Cc1ccc(Nc2ncnc3c2CCC3O)cc1` (centres undefined) are inactive: -0.59, inactive: -0.778 and inactive: 0.239.
As to `CCCOC(=O)Cc1ccc(OCC(=O)N(CC)CC)c(OC)c1`, the TEAD-luciferase reporter activity is, setting by setting: (compound concentration: 200 nM) inactive: 0.522; (compound concentration: 2 uM) inactive: 0.651; (compound concentration: 10 uM) inactive: 3.98.
The matching figures for `CCOCn1c([Se]c2cc(C)cc(C)c2)c(C(C)C)c(=O)[nH]c1=O`: inactive: -0.281, inactive: -0.344 and inactive: -0.506.
In the same order, the values of `CCN(CC)C(=S)SC(=S)N(CC)CC` are inactive: -0.513, inactive: -1.16 and inactive: -3.66.
The matching figures for `CC(Cc1ccc2c(c1)OCC(C(=O)O)O2)NCC(O)c1cccc(Cl)c1` (centres undefined): inactive: -0.668, inactive: -1.96 and inactive: -1.02.
On to `Cc1ccccc1-n1c(C)nc2ccccc2c1=O` [Quaalude], for which the TEAD-luciferase reporter activity (compound concentration: 2 uM) was inactive: -1.07.
Turning to `Cc1ccccc1-n1c(C)nc2ccccc2c1=O`, the TEAD-luciferase reporter activity is inactive: 0.736 (compound concentration: 200 nM) and inactive: -1.43 (compound concentration: 10 uM).
Consider `N#CC(CCN1CCC(C(=O)O)(c2ccccc2)C1)(c1ccccc1)c1ccccc1` (centres undefined), for which the TEAD-luciferase reporter activity was inactive: -1.78 (compound concentration: 200 nM), inactive: -0.537 (compound concentration: 2 uM) and inactive: -0.0626 (compound concentration: 10 uM).
With `CC[C@@H]1/C=C/C=C/C[C@H](C)[C@@H](O)[C@](C)(O)C(=O)[C@H](C)[C@@H](O)[C@H](C)C(=O)[C@H](C)[C@@H](O)[C@H](C)/C=C/C(=O)O[C@H]2[C@@H](C)[C@@H](CC1)O[C@]1(O[C@H](C[C@H](C)O)[C@H](C)CC1=O)[C@@H]2C`, the TEAD-luciferase reporter activity (compound concentration: 2 uM) is inactive: -0.762.
For the compound `CC[C@@H]1/C=C/C=C/C[C@H](C)[C@@H](O)[C@](C)(O)C(=O)[C@H](C)[C@@H](O)[C@H](C)C(=O)[C@H](C)[C@@H](O)[C@H](C)/C=C/C(=O)O[C@H]2[C@@H](C)[C@@H](CC1)O[C@]1(O[C@H](C[C@H](C)O)[C@H](C)CC1=O)[C@@H]2C` [Oligomycin B], the TEAD-luciferase reporter activity (compound concentration: 200 nM) was inactive: 0.242 and the TEAD-luciferase reporter activity (compound concentration: 10 uM) is inactive: 3.4.
